Laboratory results as given in PubChem BioAssay AID602313 (National Center for Advancing Translational Sciences (NCATS), 2012).
Hit rate of the full screen: of about 390,000 compounds, about 760 (0.19%) were called active. The shares of active, inactive and inconclusive entries below differ from those in the screen. The call rests on the fitted dose curve; in most records, active means well fitted inhibition curve with a large enough effect; inconclusive means small, poorly fitted or top-dose-only effect; inactive means flat fitted curve, though single readings scatter. Potencies of inconclusive entries are doubtful fits and often do not repeat.

Assay: qHTS for Inhibitors of Vif-A3F Interactions: qHTS; further: nearly all actives have a fitted effect of over 65% in size; on activity, negative = active: % of control where 0% means no effect
Conditions: HeLa A3F-eYFP + Vif (tagged APOBEC3F with the HIV-1 protein that degrades it), YFP fluorescence increase; series mostly up to 46.1 µM; activity, negative = active: at the top concentration
Procedure, shortened: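 HeLa cells stably expressing A3F-eYFP plus Vif, plated and incubated overnight at 37 deg C, then exposed to compounds overnight at 37 deg C. Blocked degradation read as raised yellow fluorescence (Ex 488/Em 500-530).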
Potency means the concentration at half of the fitted maximal effect.

SMILES	activity, negative = active	Potency
COC(=O)CN1C(C)=Nc2ccc(C)cc2C1c1ccccc1 (centres undefined)	inactive: 3.53%	–
CCCCCCc1cc2cc(-c3nnc(-c4ccccc4O)o3)c(=O)oc2cc1O	–	inconclusive: 2.82 µM [inhibitor, full curve, poor fit]
Cc1ccc(C(=O)C=Cc2cccc(C)c2)cc1	inactive: -0.612%	–
CN1c2ccccc2C(C)(C)C12C=Nc1c(cc(N3CCOCC3)c3ccccc13)O2 (centres undefined)	–	inconclusive: 3.16 µM [inhibitor, single point]
COc1ccc(C(=S)N2CCOCC2)cc1OC(=O)c1ccc([N+](=O)[O-])cc1	inactive: -12.5%	–
CC(C)N(C(=S)Nc1cccc(C(F)(F)F)c1)C(C)c1ccccn1 (centres undefined)	inactive: -5.46%	–
CCC(=O)N1CCc2cc(Br)cc(S(=O)(=O)N3CCC(C(=O)NC(C)C)CC3)c21	–	inconclusive: 3.16 µM [inhibitor, full curve, poor fit]
N#Cc1c(C(F)(F)F)cc(-c2cccs2)nc1SCC(=O)Nc1cccc(C(F)(F)F)c1	–	active: 10 µM
Cc1ccc(Cn2c(=O)n(-c3cc(C)cc(C)c3)c(=O)c3oc4ccccc4c32)cc1	inactive: 1.83%	–
CC12COC3(C(=O)NCCc4ccccc4)CC1CCC32C (centres undefined)	–	inconclusive: 35.5 µM [inhibitor, single point]
CCOc1ccc2nc(N3C(=O)/C(=C/c4ccccc4)NC3=S)sc2c1	–	inconclusive: 6.31 µM [inhibitor, partial curve, poor fit]
Cc1ccc2nc(C)c3c(c2c1)N(c1ccccc1)CC3	–	inconclusive: 7.08 µM [inhibitor, full curve, poor fit]
COc1cccc(NC(=O)CSc2nc3c(sc4ccccc43)c(=O)n2CCCN2CCCC2)c1	–	inconclusive: 35.5 µM [inhibitor, single point]
COc1ccc(NC(=O)N2c3ccc(OC)cc3C(C)=CC2(C)C)cc1	inactive: -12.8%	–
COc1cc(OC)cc(-c2c(-c3cccs3)c3cc(-c4ccn[nH]4)ccc3n2C)c1	–	inconclusive: 35.5 µM [inhibitor, single point]
CCn1c(O)c(/C=N/N=C/c2ccccc2)c2ccc(C3=NNC(=O)CC3)cc21	–	inconclusive: 35.5 µM [inhibitor, single point]
NS(=O)(=O)c1ccc(NC(=O)COC(=O)CSCc2ccc(F)cc2)cc1	–	inconclusive: 35.5 µM [inhibitor, single point]
N#C/C(=C\c1ccc(N2CCOCC2)o1)C(=O)NCCc1ccccc1	–	active: 22.4 µM
COC(=O)Cn1c(=O)c2c(n(Cc3ccccc3)c1=O)N/C(=C/c1ccc(Br)cc1)C2=O	–	inconclusive: 22.4 µM [inhibitor, partial curve, poor fit]
